# Laboratory results published in the supplement of paper PMC9135407.
# Where “and” joins values, the source holds several entries; their conditions need not be identical. Equal values may be shown once. Where a name gives a salt, the structure may show the parent alone. ± gives the standard deviation of the averaged measurements. Some of the results follow. Plates or batches differ in their baseline, so values are only roughly comparable.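 Assay uses culture-activated primary human stellate myofibroblasts; lipid droplet recovery indicates inactivation. Measured: proportion of Hoechst-counted cells over a plate-specific Bodipy cutoff, duplicate wells, DMSO and nortriptyline as per-plate negative and positive controls. A hit scores, control-normalized, above the plate's top-tenth-percentile nortriptyline wells or ranks among its three best wells. Final well concentrations not reported.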
# System: primary human hepatic stellate cells (donor 1)
# Assay: percent Bodipy-positive cells; higher = more lipid droplet accumulation
# Settings: 48 h
# [1] = library stock concentration: 3.33 mM
# [2] = library stock concentration: 10 mM
# [3] = library stock concentration: 80 uM
# [4] = library stock concentration: 400 uM
# [5] = library stock concentration: 1 mM
# [6] = library stock concentration: 2 mM
# [7] = library stock concentration: 5.3 mM
smiles,measurement,setting,value
C=CS(=O)(=O)NC1CCN(C(=O)CNc2cc(I)c(Cl)cc2OC)CC1 [K-Ras(G12C) inhibitor 9],percent Bodipy-positive cells,[1],65 ± 5.3%
same,percent Bodipy-positive cells,[2],93.4 ± 3.3%
CCN(CC)CCCCNc1ncc2cc(-c3cc(OC)cc(OC)c3)c(NC(=O)NC(C)(C)C)nc2n1,percent Bodipy-positive cells,[3],12.8 ± 0.73%
same,percent Bodipy-positive cells,[4],17.3 ± 3.5%
O=C(O)CCC/C=C\C[C@@H]1[C@@H](/C=C/C(F)(F)COc2ccccc2)[C@H](O)C[C@@H]1O [Tafluprost (free acid)],percent Bodipy-positive cells,[5],7.78 ± 0.42%
CCN(CC)Cc1ccc2cc(COC(=O)Nc3ccc(C(=O)NO)cc3)ccc2c1.Cl.O [Givinostat (ITF2357)],percent Bodipy-positive cells,[1],86.74 ± 0.62%
same,percent Bodipy-positive cells,[2],96.1 ± 2.3%
C[C@]1(Cn2ccnn2)[C@H](C(=O)O)N2C(=O)C[C@H]2S1(=O)=O,percent Bodipy-positive cells,[2],38.1 ± 2.2%
CC(=O)OCC(=O)[C@@]1(OC(C)=O)[C@@H](C)C[C@H]2[C@@H]3C[C@H](F)C4=CC(=O)C=C[C@]4(C)[C@@]3(F)[C@@H](O)C[C@@]21C [Diflorasone Diacetate],percent Bodipy-positive cells,,25.6 ± 9.9%
CC(=O)OCC(=O)[C@@]1(OC(C)=O)[C@@H](C)C[C@H]2[C@@H]3C[C@H](F)C4=CC(=O)C=C[C@]4(C)[C@@]3(F)[C@@H](O)C[C@@]21C [Diflorasone diacetate],percent Bodipy-positive cells,library stock concentration: 4 mM,1.86 ± 1.6%
O=C(NCCN1CCCCC1)c1ccc(I)cc1 [N-[2-(Piperidinylamino)ethyl]-4-iodobenzamide],percent Bodipy-positive cells,[2],32.1 ± 2.5%
CC1=C(/C=C/C(=C/C=C/C(C)=C/C(=O)O)c2ccc(C)cc2)C(C)(C)CCC1,percent Bodipy-positive cells,[2],8.51 ± 2.6%
CC1=C(/C=C/C(C)=C\C=C\C(C)=C\C(=O)O)C(C)(C)CCC1 [9-cis Retinoic acid],percent Bodipy-positive cells,[5],11.6 ± 8.6%
O=P(O)(O)OC1[C@H](O)[C@H](O)C(O)[C@H](O)[C@H]1O (stereo partly drawn) [D-myo-Inositol-1-phosphate (sodium salt)],percent Bodipy-positive cells,[5],12.5 ± 2%
CC[C@H](CO)Nc1nc(NCc2ccccc2O)c2ncn(C(C)C)c2n1 [Olomoucine II],percent Bodipy-positive cells,[1],66.1 ± 7.8%
"CCCCc1c(-c2ccc(O)cc2)[nH]c2nccnc12 [Aloisine A, RP107]",percent Bodipy-positive cells,[1],9.2 ± 2.2%
CCCCC[C@H](O)/C=C/[C@H]1[C@@H]2CO[C@@H](C2)[C@@H]1C/C=C\CCCC(=O)O,percent Bodipy-positive cells,[5],17.3 ± 3.4%
Cc1cc(-c2ccc(/N=N/c3ccc4c(S(=O)(=O)O)cc(S(=O)(=O)O)c(N)c4c3O)c(C)c2)ccc1/N=N/c1ccc2c(S(=O)(=O)O)cc(S(=O)(=O)O)c(N)c2c1O,percent Bodipy-positive cells,[2],15.1 ± 2.1%
Nc1nc(Nc2ccc(S(N)(=O)=O)cc2)nn1C(=S)Nc1c(F)cccc1F [Cdk1/2 Inhibitor III],percent Bodipy-positive cells,[1],92.3 ± 5.3%
C[C@]12CC[C@H](O)CC1=CCC1C2CC[C@]2(C)C(n3cnc4ccccc43)=CCC12 (some centres not stated) [Galeterone],percent Bodipy-positive cells,[2],89.5 ± 1%
Cl.Cl.OCCN1CCN(CCCN2c3ccccc3C=Cc3ccccc32)CC1 [Opipramol dihydrochloride],percent Bodipy-positive cells,[2],91.3 ± 3.1%
N#C/C(=C(/N)Sc1ccccc1N)c1cccc(C(O)c2ccncc2)c1 (configuration not stated) [MEK Inhibitor I],percent Bodipy-positive cells,[1],11.1 ± 1%
CCCN(CCc1ccccc1)C1CCc2c(O)cccc2C1 (configuration not stated) [(?)-PPHT hydrochloride],percent Bodipy-positive cells,[2],91.8 ± 2.1%
Cc1cc(OCc2nnc(SC3CCCC3)n2-c2cccnc2)ccc1-c1ccc(S(C)(=O)=O)cc1,percent Bodipy-positive cells,[1],98.84 ± 0.75%
same,percent Bodipy-positive cells,[2],100%
CNC(=O)c1ccc(C)c(-n2c(C)cc(OCc3ccc(F)cc3F)c(Br)c2=O)c1,percent Bodipy-positive cells,[3],15.8 ± 1.8%
same,percent Bodipy-positive cells,[4],13.1 ± 0.76%
same,percent Bodipy-positive cells,[6],14.2 ± 0.69%
same,percent Bodipy-positive cells,[1],15 ± 2.1%
same,percent Bodipy-positive cells,[2],17.3% and 11.2%
C/C=C/C/C=C/CCC(=O)[C@H]1O[C@H]1C(N)=O [Cerulenin],percent Bodipy-positive cells,[5],8.14 ± 1.9%
same,percent Bodipy-positive cells,library stock concentration: 22.4 mM,99.1 ± 1.3%
CNC(=N)NCCC[C@H](N)C(=O)O [NG-Monomethyl-L-arginine acetate],percent Bodipy-positive cells,[2],27.9 ± 5.2%
CNC(=N)NCCC[C@H](N)C(=O)O,percent Bodipy-positive cells,[2],22.94 ± 0.12%
NC(=O)c1cccc(N)c1 [3-aminobenzamide (3-ABA)],percent Bodipy-positive cells,library stock concentration: 36.7 mM,9.24 ± 3.8%
NC(=O)c1cccc(N)c1 [3-aminobenzamide],percent Bodipy-positive cells,[2],45.1 ± 5%
NC(=O)c1cccc(N)c1 [3-Aminobenzamide],percent Bodipy-positive cells,[1],8.24 ± 3.8%
same,percent Bodipy-positive cells,[2],7.09% and 5.71%
CCCCCCCCCCCC(=O)NC[C@]1(C)CCC[C@]2(C)c3ccc(C(C)C)cc3CCC12 (some centres not stated) [Lauric Acid Leelamide],percent Bodipy-positive cells,[5],11.6 ± 1.1%
Cc1ccc(-n2nc(C(C)(C)C)cc2NC(=O)Nc2ccc(OCCN3CCOCC3)c3ccccc23)cc1 [BIRB 796 (Doramapimod)],percent Bodipy-positive cells,[1],10.1 ± 0.9%
same,percent Bodipy-positive cells,[2],18.9 ± 5.6%
Cc1ccc(-n2nc(C(C)(C)C)cc2NC(=O)Nc2ccc(OCCN3CCOCC3)c3ccccc23)cc1,percent Bodipy-positive cells,[3],15.4 ± 1.6%
same,percent Bodipy-positive cells,[4],21.4 ± 13%
same,percent Bodipy-positive cells,[6],18.5 ± 0.67%
same,percent Bodipy-positive cells,[2],20.3 ± 7.2%
C=CCSCC1Nc2cc(Cl)c(S(N)(=O)=O)cc2S(=O)(=O)N1 (configuration not stated) [Althiazide],percent Bodipy-positive cells,,10.1 ± 1.4%
same,percent Bodipy-positive cells,library stock concentration: 5.2 mM,18.6 ± 6.5%
same,percent Bodipy-positive cells,[2],24.5 ± 3.8%
CCCCCCCCCCCC[N+](C)(C)CCOc1ccccc1 [Domiphen Bromide],percent Bodipy-positive cells,[1],41.7 ± 1.7%
same,percent Bodipy-positive cells,[2],100%
CC(=O)N(CC(O)CN(C(C)=O)c1c(I)c(C(=O)NCC(O)CO)c(I)c(C(=O)NCC(O)CO)c1I)c1c(I)c(C(=O)NCC(O)CO)c(I)c(C(=O)NCC(O)CO)c1I (configuration not stated) [Iodixanol],percent Bodipy-positive cells,,10.2 ± 2.8%
CCCCC[C@H](O)/C=C/[C@H]1OC(O)C[C@H](O)[C@@H]1CCCCCCC(=O)O (some centres not stated) [Thromboxane B1],percent Bodipy-positive cells,[5],17.9 ± 0.35%
O=C(Nc1ccc(I)cc1)NC1CCCCC1,percent Bodipy-positive cells,[2],97.9 ± 2%
"CC[C@H](CO)Nc1nc(NCc2ccc(-c3ccccn3)cc2)c2ncn(C(C)C)c2n1 [CR8, (R)-Isomer]",percent Bodipy-positive cells,[1],26.9 ± 3.4%
CC(C(=O)O)c1ccc(C(=O)c2ccccc2)s1 (configuration not stated) [Tiaprofenic acid],percent Bodipy-positive cells,,22.3 ± 10%
CCCCC[C@H](O)/C=C/C=C\CCCCCCCC(=O)O,percent Bodipy-positive cells,library stock concentration: 100 uM,8.38 ± 7%
NC(=O)NS(=O)(=O)c1ccc(N)cc1,percent Bodipy-positive cells,[2],24.2 ± 3.1%
O=C(O)CCC/C=C\CC1C(O)CC(O)C1/C=C/C(O)COc1cccc(Cl)c1 (configuration not stated) [Cloprostenol],percent Bodipy-positive cells,[5],17 ± 7.2%
O=C(O)CCC/C=C\CC1C(O)CC(O)C1/C=C/C(O)COc1cccc(Cl)c1 (configuration not stated),percent Bodipy-positive cells,[2],6.33 ± 1.5%
CN(C)CC/C=C1/c2ccccc2COc2ccc(CC(=O)O)cc21 [Olopatadine],percent Bodipy-positive cells,library stock concentration: 5.9 mM,9.17 ± 1.8%
CN(C)CC/C=C1/c2ccccc2COc2ccc(CC(=O)O)cc21,percent Bodipy-positive cells,[2],9.62 ± 5.2%
CN(C)CC/C=C1/c2ccccc2COc2ccc(CC(=O)O)cc21 [Olopatadine HCl],percent Bodipy-positive cells,[1],11.2 ± 4.4%
same,percent Bodipy-positive cells,[2],12.4 ± 4.4%
COc1cc(/C=C/C(=O)N2CCCCCCC2)cc(OC)c1OC,percent Bodipy-positive cells,[2],30.6 ± 7.2%
Clc1ccc(N2CCN(Cc3cc4ccccn4n3)CC2)cc1,percent Bodipy-positive cells,[2],33.5 ± 8.5%
c1nc(CC2CCNCC2)c[nH]1 [Immepip dihydrobromide],percent Bodipy-positive cells,[2],9.32 ± 1%
O=C(O)C1=CCCN(CCON=C(c2ccccc2)c2ccccc2)C1 [NO-711 hydrochloride],percent Bodipy-positive cells,[2],41.6 ± 5.3%
O=C(O)C1=CCCN(CCON=C(c2ccccc2)c2ccccc2)C1,percent Bodipy-positive cells,[2],4.9 ± 0.95%
CC(C)C(=O)Oc1ccc(CO)cc1[C@H](CCN(C(C)C)C(C)C)c1ccccc1.O=C(O)C=CC(=O)O [Fesoterodine Fumarate],percent Bodipy-positive cells,[2],88.7 ± 8.6%
c1ccc(CN(CC2=NCCN2)c2ccccc2)cc1 [Antazoline HCl],percent Bodipy-positive cells,[1],21.5 ± 11%
same,percent Bodipy-positive cells,[2],65.39 ± 0.24%
c1ccc(CN(CC2=NCCN2)c2ccccc2)cc1 [Antazoline phosphate],percent Bodipy-positive cells,[2],39.9 ± 6.7%
c1ccc(CN(CC2=NCCN2)c2ccccc2)cc1 [Antazoline hydrochloride],percent Bodipy-positive cells,,59.6 ± 7.1%
same,percent Bodipy-positive cells,[2],24.2 ± 8.2%
Nc1ncnc2n[nH]c(Nc3ccc(F)cc3)c12,percent Bodipy-positive cells,[5],15.8 ± 7.4%
same,percent Bodipy-positive cells,[1],21.2 ± 3%
same,percent Bodipy-positive cells,[2],22.8% and 13.3% and 6.06%
CC[C@H](C)C[C@H](C)CCCCCCCCC(=O)N[C@H]1C[C@@H](O)[C@@H](NCCN)NC(=O)[C@@H]2[C@@H](O)CCN2C(=O)[C@H]([C@H](O)CCN)NC(=O)[C@H]([C@H](O)[C@@H](O)c2ccc(O)cc2)NC(=O)[C@@H]2C[C@@H](O)CN2C(=O)[C@H]([C@@H](C)O)NC1=O [Caspofungin Acetate],percent Bodipy-positive cells,[1],8.79 ± 3.1%
same,percent Bodipy-positive cells,[2],40 ± 25%
CCn1cc(NC(=S)Nc2cc(Cl)ccc2OC)c(C(N)=O)n1,percent Bodipy-positive cells,[1],30.6 ± 6.4%
same,percent Bodipy-positive cells,[2],46 ± 2.5%
CN(C)Cc1ccc(S(=O)(=O)n2ccc(/C=C/C(=O)NO)c2)cc1 [Resminostat],percent Bodipy-positive cells,[1],54.6 ± 8.2%
same,percent Bodipy-positive cells,[2],88.4 ± 7.2%
COc1c(N2CCNC(C)C2)c(F)cc2c(=O)c(C(=O)O)cn(C3CC3)c12 (configuration not stated) [Gatifloxacin],percent Bodipy-positive cells,[7],8.26% and 15.8%
same,percent Bodipy-positive cells,[2],37% and 20.5%
O=C(c1ccccc1)c1ccc2n1CCC2C(=O)O (configuration not stated) [Ketorolac (tromethamine salt)],percent Bodipy-positive cells,[5],11.9 ± 7.3%
O=C(c1ccccc1)c1ccc2n1CCC2C(=O)O (configuration not stated) [Ketorolac tromethamine],percent Bodipy-positive cells,,9.55 ± 1%
same,percent Bodipy-positive cells,[7],10.4 ± 4%
same,percent Bodipy-positive cells,[2],44.2 ± 2.3%
O=C(c1ccccc1)c1ccc2n1CCC2C(=O)O (configuration not stated) [Ketorolac tris salt],percent Bodipy-positive cells,[2],34.5 ± 22%
O=C(c1ccccc1)c1ccc2n1CCC2C(=O)O (configuration not stated) [Ketorolac],percent Bodipy-positive cells,[1],9.04 ± 3.1%
same,percent Bodipy-positive cells,[2],13 ± 0.17%
O=C(c1ccccc1)c1ccc2n1CCC2C(=O)O (configuration not stated),percent Bodipy-positive cells,[2],9.43 ± 2%
CCOC(=O)[C@@](C)(N)Cc1ccc(O)c(O)c1 [Methyldopate hydrochloride],percent Bodipy-positive cells,,8.79 ± 2.3%
same,percent Bodipy-positive cells,library stock concentration: 7.3 mM,15.5 ± 7%
CCN(CC)CCCC(C)Nc1nc(C)cc(Nc2ccc3nc(C)cc(N)c3c2)n1 (configuration not stated),percent Bodipy-positive cells,[1],28.9 ± 1.4%
OCc1ccccc1O [Salicyl alcohol],percent Bodipy-positive cells,[2],10.1 ± 1.7%
same,percent Bodipy-positive cells,library stock concentration: 16.1 mM,12 ± 3.2%
CNC(=O)[C@H]1O[C@@H](n2cnc3c(NCc4cccc(I)c4)nc(Cl)nc32)[C@H](O)[C@@H]1O,percent Bodipy-positive cells,[2],10.7 ± 2%
CNC(=O)[C@H]1O[C@@H](n2cnc3c(NCc4cccc(I)c4)nc(Cl)nc32)[C@H](O)[C@@H]1O [Chloro-IB-MECA],percent Bodipy-positive cells,[2],44.6 ± 1.8%
O=C(C[S+]([O-])Cc1ccco1)NC/C=C\COc1cc(CN2CCCCC2)ccn1 (configuration not stated) [Lafutidine],percent Bodipy-positive cells,[1],8.81 ± 6.1%
same,percent Bodipy-positive cells,[2],11.3 ± 0.74%
Fc1ccc([C@@H]2CCNC[C@H]2COc2ccc3c(c2)OCO3)cc1 [Paroxetine HCl],percent Bodipy-positive cells,library stock concentration: 6.1 mM,69.1 ± 2.6%
C#CCC(Cc1cnc2nc(N)nc(N)c2n1)c1ccc(C(=O)N[C@@H](CCC(=O)O)C(=O)O)cc1 (some centres not stated) [Pralatrexate],percent Bodipy-positive cells,[1],13.9 ± 5.8%
same,percent Bodipy-positive cells,[2],30.8 ± 9.4%
O=[N+]([O-])c1cccc2c[nH]nc12,percent Bodipy-positive cells,[2],11.3 ± 8.2%
CC(C)(C)NCC(O)COc1cccc2[nH]c(=O)[nH]c12 (configuration not stated),percent Bodipy-positive cells,[2],37.5 ± 3.9%
